Results are given in words; binding and its absence hold for the method and conditions named. In cells and extracts the contact can be indirect. Some entries that bind do so weakly or less than the wild type.
Target: Glutamate ionotropic receptor AMPA type subunit 2 (GRIA2/GluA2) (mouse (endogenous in mouse brain)) (UniProt P23819)
Experiment: co-IP; synaptosomes (P2) from whole mouse brain in Syn-PER reagent and co-IP buffer (150 mM NaCl, 10 mM Tris-HCl pH 7.4, 1 mM EDTA, 1 mM EGTA, Triton X-100 1%, NP-40 0.5%), on ice and at 4 °C; 2.88 µg primary antibody, Protein A magnetic beads; Western blot

Amino acid sequences for entries named in this document (tags omitted). Residues count along the entry.
UniProt P23819, residues 25-883: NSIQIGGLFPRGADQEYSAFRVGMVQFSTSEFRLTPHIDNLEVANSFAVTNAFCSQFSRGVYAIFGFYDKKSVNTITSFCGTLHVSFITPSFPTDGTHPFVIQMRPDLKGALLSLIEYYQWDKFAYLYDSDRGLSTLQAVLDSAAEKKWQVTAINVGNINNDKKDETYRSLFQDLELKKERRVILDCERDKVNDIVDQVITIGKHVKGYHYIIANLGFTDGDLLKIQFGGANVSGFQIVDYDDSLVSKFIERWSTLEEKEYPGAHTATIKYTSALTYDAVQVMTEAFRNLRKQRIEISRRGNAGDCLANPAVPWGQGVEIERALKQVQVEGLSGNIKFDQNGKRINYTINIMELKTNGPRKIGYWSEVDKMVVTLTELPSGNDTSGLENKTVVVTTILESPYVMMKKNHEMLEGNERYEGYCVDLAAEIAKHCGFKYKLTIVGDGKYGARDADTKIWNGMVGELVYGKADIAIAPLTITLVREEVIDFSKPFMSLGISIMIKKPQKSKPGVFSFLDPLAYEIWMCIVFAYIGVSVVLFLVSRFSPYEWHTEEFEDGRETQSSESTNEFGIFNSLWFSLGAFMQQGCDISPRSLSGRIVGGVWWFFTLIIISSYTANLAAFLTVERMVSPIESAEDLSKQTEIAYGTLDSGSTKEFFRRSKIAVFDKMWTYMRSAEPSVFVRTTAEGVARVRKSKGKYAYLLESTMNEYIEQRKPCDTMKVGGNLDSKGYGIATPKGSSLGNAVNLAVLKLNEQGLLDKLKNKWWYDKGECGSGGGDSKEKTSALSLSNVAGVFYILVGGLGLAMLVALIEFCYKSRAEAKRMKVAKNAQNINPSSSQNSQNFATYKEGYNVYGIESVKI

B1: Ubiquitin-specific protease 53 (USP53) (protein, UniProt P15975 1-1069)
chain: MAWVKFLRKPSGNLGKAYQAGSLLSLAPTVGLLNEPGQNSCFLNSAVQVLWQLDIFRRSLRALTGHICQGDACIFCALKTIFAQFQHSREKALPSDNIRHALAESFKDEQRFQLGLMDDAAECFENILARIHFHLVPNRDADMCTSKSCVTHQKFAMTLYEQCVCRSCGASSDPLPFTELVRYISTTALCNEVERMMERHERVKPEMFAELLQAANTADDYRKCPSNCGQKIKIRRVLMNCPEIVTIGLVWDSEHSDLTEDVVRSLATHLYLPGLFYRVTDENATDSELHLVGMICYTSRHYCAFAFHTKSSKWVFFDDAHVKEMGTRWKDVVSKCIRCHLQPLLLFYANPDGTAVSTEDALRQVVHWSHYRSGEENMGCGKPIIYKPDNSKENGFGGQTKQKENHKFQTDISSLNRSQMQTSGRRAPVKLSHDQREKIKDISRECALKAIEQKNALSSQRKDLEKGQRKDTGRHRDLVDEVLASFKSGSPPASDGFRQQGNPHLYHSQGKGPCKHDRATHESYTSGKVISSSKSQNLLVPGEKTTGKAKSDSGTGYETDSSQDSRDKGGSYSSKTKSRHRGWKPMRETLNVDSVFSESEKRQHSPRRKSDIGSRPRCSKDQSFNNWPKANPKQKGLMTIYEDEMKQEAGSRSSLETNGKGAEKNLSAAESRGPGTSWQMQRTESGYESSDHVSNGSASLDSPGVEGSGAVMDVGGGKAFSEHIKMNSHNMDSMEYISHHCKDHPEGFRKELQDLEADDKIHELHPESHVQIKSHLIKRSQIGETNDKLFPSASPQTLAREHVYQTNEHKVERPDRSKCSERHNTENSEGTGLPFHVDESSVAGKRVDSNETVSPSSLPSSVRTAGLKPETGPLMFWSQQNITEQGYSDNSLSRELTLLSACNADSCQMPKLHCHRSPPPLPPKKYSTASAPRLERVGLSPDVGVTEAFNTNPSSLPKHSLSPASGPSLEGSPCMTQERDKETIQVKQLAANSYPSSCSTNSFQPDQDSTSVCPNETISLTTYFSVDSCMTDTYRLKYHQRPKLYFPESSGHHSNNSLSQTEQVEGSIT
  binding: binds

Source: paper PMC10606770
